Test results published in patent US20260028422A1 (CONCEPT TO MEDICINE BIOTECH, published 2026).
Where a chain is given by its changes, count along the chain named. These are yes or no findings as the source states them, for the method shown. Some binding calls cover weakened binding; strength is not graded here. For some of these results: Where a sequence is shown, tags or fusion partners need not be part of it.

T1: human MerTK-his protein (human, UniProt Q12866 21-505)
T1 construct: extracellular domain; also called hMerTK-His; human MerTK protein
T1 sequence (looked up): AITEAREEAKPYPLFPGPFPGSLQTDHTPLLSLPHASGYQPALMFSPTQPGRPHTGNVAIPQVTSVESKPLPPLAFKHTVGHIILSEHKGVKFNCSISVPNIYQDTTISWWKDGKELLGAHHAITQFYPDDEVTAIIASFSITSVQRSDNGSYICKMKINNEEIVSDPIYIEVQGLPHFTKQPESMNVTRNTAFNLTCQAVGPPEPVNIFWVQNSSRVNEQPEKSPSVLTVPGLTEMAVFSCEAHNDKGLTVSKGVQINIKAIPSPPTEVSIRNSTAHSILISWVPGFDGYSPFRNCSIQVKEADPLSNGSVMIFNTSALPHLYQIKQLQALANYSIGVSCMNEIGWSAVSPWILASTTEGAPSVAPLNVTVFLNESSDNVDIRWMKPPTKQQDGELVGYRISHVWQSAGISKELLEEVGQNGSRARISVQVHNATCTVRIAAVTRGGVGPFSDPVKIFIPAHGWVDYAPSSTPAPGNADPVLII

B1: 10F7D9 Hu-5 (antibody, V domains shown)
VH: QIQLVQSGSELKKPGASVKVSCKASGYTFTNYGMNWVKQAPGQGLKWMGWINTYTGEPTYADDFKGRFVFSLDTSVSTAYLQISSLKAEDTAVYFCATYGHYAWFAYWGQGTLVTVSS
VL: EIVLTQSPDFQSVTPKEKVTITCRASSSVSYMHWYQQKPDQSPKLLIKATSNLASGVPSRFSGSGSGTDFTLTINSLEAEDAATYYCQQWGTKPLTFGQGTKLEIK
B2: 10F7D9 Hu-18 (antibody, V domains shown)
VH: B1 VH with I2V, V20I, K38R, K46E, S84N, S85N
VL: B1 VL with L45P, L46W, K48Y, Y86F
B3: 10F7D9 Hu-7 (antibody, V domains shown)
VH: B1 VH with I2V, K38R, K46E, F95Y, T98R
VL: B1 VL with L45P, L46W
B4: 10F7D9 Hu-16 (antibody, V domains shown)
VH: B1 VH with K38R
VL: B1 VL with L45P, L46W, K48Y, Y86F
B5: 10F7D9 Hu-13 (antibody, V domains shown)
VH: B1 VH with I2V, K38R, K46E, F95Y, T98R
VL: B1 VL with L45P, L46W, K48Y, Y86F
B6: 10F7D9 Hu-10 (antibody, V domains shown)
VH: B1 VH with K38R
VL: B1 VL with L45P, L46W
B7: 10F7D9 Hu-17 (antibody, V domains shown)
VH: B1 VH
VL: B1 VL with L45P, L46W, K48Y, Y86F
B8: 10F7D9 Hu-11 (antibody, V domains shown)
VH: B1 VH
VL: B1 VL with L45P, L46W
B9: 10F7D9 Hu-12 (antibody, V domains shown)
VH: B1 VH with I2V, V20I, K38R, K46E, S84N, S85N
VL: B1 VL with L45P, L46W
B10: 10F7D9 Hu-9 (antibody, V domains shown)
VH: B1 VH with K38R, K46E
VL: B1 VL with L45P, L46W
B11: 10F7D9 Hu-15 (antibody, V domains shown)
VH: B1 VH with K38R, K46E
VL: B1 VL with L45P, L46W, K48Y, Y86F
B12: 216G3D6 chimeric monoclonal antibody (antibody, V domains shown)
VH: QVTLKESGPGILQPSQTLSLTCSFSGFSLSTSGMGVGWIRQPSGKGLEWLAHIWWDDDKHCNPALKSRLTISKDTSSNQVFLKIASLDTADTATYYCTQMTMTREFAYWGQGTLVTVSA
VL: DIQMTQTISSLSASLGDRVTISCSAGQGISNYLNWYQQKPDGTVKLLIYYTSRLHSGVPSRFSGSGSGTDFSLTISNLEPEDIATYFCQQYSKFPYTFGGGTKLEIK
B13: 254B4D9 chimeric monoclonal antibody (antibody, V domains shown)
VH: QIQLVQSGPELKKPGETVKISCKASGYTFTAYGMSWVKQAPGKGLQWMGWINTYSGVPTYTDDFKGRFAFSLEASASTAFLQINNLKNEDTSTYFCARRAAVVAKYWYFDVWGTGTTVTVSS
VL: DIQMTQSPSSLFASLGGKVIITCKSSQDINKRISWYQHKPGKGPRLLIHSTSSLQPGIPLRFSGSGSGRDYSFSISNLEPEDIATYFCLQYDNLLTFGAGTKLELK
B14: 10F7D9 chimeric monoclonal antibody (antibody, V domains shown)
VH: QIQLVQSGPELKKPGETVKISCKASGYTFTNYGMNWVKQAPGKGLKWMGWINTYTGEPTYADDFKGRFAFSLETSASTAYLQINNLKNEDLATYFCATYGHYAWFAYWGQGTLVTVSA
VL: QIVLSQSPAILSASPGEKVTMTCRASSSVSYMHWYQQKSGSSPKPWIYATSNLASGVPARFSGSGSGTSYSLTISRVEAEDAATYFCQQWGTKPLTFGAGTKLELK
B15: 85H8D5 chimeric monoclonal antibody (antibody, V domains shown)
VH: QIQLVQSGPELKKPGETVKISCMASGYTFTTHGVTWVKQAPGQGLQRMGWINTYSGVPTYADDFKGRFVFSLETSANTAHLQINNLKNEDTATYFCARTNNYRYFDVWGTGTTVTVSS
VL: B14 VL with A13S, S39P, S71F, F86Y, G91N, K93D, L95P, A99G, L105I
B16: 252H9D5 chimeric monoclonal antibody (antibody, V domains shown)
VH: QVTLRESGPGILQPSQTLSLTCSFSGFSLNTFGMGVGWIRQSSGKGLKWLAHIWWDDDKFYNPALKSRLTISKDTSKNQVFLKIANVDTTDTATYYCARIEGGLPYYYDYWGQGTPLIVSS
VL: DIVMTQSQKIMSTSVGDRISVTCKASQIVGTNVVWYQQKPGQSPKALIYSTSYRYSGVPDRFTGSRSGTDFTLTISNVQSEDLANYFCQQYNSYPFTFGSGTKLEIK
B17: 247E5A8 chimeric monoclonal antibody (antibody, V domains shown)
VH: DVQLQESGPGLVKPSQSLSLTCSVTGYSITGGYYWTWIRQFPGNKLEWMGYISYDGDNNYNPSLKNRISITRDTSKNQFFLNLNSVTTEDTATYYCAREGGRLRTMDYWGQGTSVTVSS
VL: QIVLTQSPAIMSASPGEKVTITCRASSSVNYMHWFQQKPGTSPKLWIYTTSNLASGVPARFSGSGSGTSYSLTISRMEAEDAATYYCQQRSSYPFTFGSGTKLEIK
B18: 276C2D1 chimeric monoclonal antibody (antibody, V domains shown)
VH: QVQLQQSGPELVKPGASVKLSCKASGYTFTSYDINWVKQRPGLGLEWIGWIYPRDGYTKYNEKFKGKATLAVDTSSSTAYMELHSLTSEDSAVYFCARGYYSNLYYFDYWGQGTTLTVSS
VL: EVVLTQSPPTMAASPGEKITITCSASSSISSNYLHWYQQKPGFSPKLLIYRTSNLASGVPARFSGSGSGTSYSLTIGTMEAEDVATYYCQQGRSIPLTFGAGTKLELK
B19: 280C6A3 chimeric monoclonal antibody (antibody, V domains shown)
VH: B18 VH with T28S, S31T, L43Q, Y57S, A71T, V72L, S77N, E82G, S102D
VL: B18 VL with V2I, P9T, I29V, S94I, I95V
B20: 293C2B7 chimeric monoclonal antibody (antibody, V domains shown)
VH: B18 VH with L43Q, N61K, A71T, Y100F
VL: B18 VL with V2I, P9T, A13T, A61D
B21: 300A5A3 chimeric monoclonal antibody (antibody, V domains shown)
VH: B18 VH with S31T, Y80S, S102D, Y109N, Q112P
VL: B18 VL with V2N, P9T, M11V, S28I, V84A, I95V
B22: 265F11B5 chimeric monoclonal antibody (antibody, V domains shown)
VH: B18 VH with K19R, S31T, K67R, A97T, S102D
VL: B18 VL with V2I, P9T, M11V, S28I, L34F, K40R, I95V
B23: 252C12B10 chimeric monoclonal antibody (antibody, V domains shown)
VH: QVQLQQPGTELVKPGASVKLSCKTSGYTFTSYWMHWMKQRPGQGLEWLGHINPSTGGSNYNEKFKSKATLTVDKSSNTAYMQLSSLTSEDSAVYYCARPRGFYGYSYWYFDVWGSGTTVTVSS
VL: DIQMTQTTSSLSASLGDRVTISCSASQDINNYLNWYQHKPDGTIKVLIYFTSSLHSGVPSRFSGSGSGTEYSLTISNLEPEDIATYYCQQYSKLPPTFGSGTKLEIK

The binders below were run against T1, human MerTK-his protein (assay: ELISA, coated human MerTK-his (FIG. 7)).

binding | Binder
binds | B1
binds | B2
binds | B3
binds | B4
binds | B5
binds | B6
binds | B7
binds | B8
binds | B9
binds | B10
binds | B11

The binders below were run against T1, human MerTK-his protein (assay: ELISA, coated human MerTK-his).
Method: To evaluate the binding activity, the chimeric mAbs were subjected to ELISA test. Briefly, 96-well plates were coated with human or cyno MerTK-his protein at 2 μg/mL in PBS, 100 μL/well at 4° C. overnight, then blocked with 150 μL/well of 1% BSA. Five-fold dilutions of MerTK antibodies starting from 20 nM were added to each well and incubated for 1 hour at room temperature. The plates were washed with PBS/Tween-20 and then incubated with goat anti-human IgG Fe antibody conjugated with Horse Radish Peroxidase (HRP) for 30 minutes (mins) at room temperature. After washing, the plates were developed with TMB substrate and subsequent stop solution was added to complete the reaction. The signal from each well was read by spectrophotometer at OD 450 nm.

binding | Binder
binds | B1
binds | B2
binds | B3
binds | B4
binds | B5
binds | B6
binds | B7
binds | B8
binds | B9
binds | B10
binds | B11

The binders below were run against cyno MerTK-his protein (cynomolgus) (assay: ELISA, coated cyno MerTK-his (FIG. 2)).

binding | Binder
binds | B12
binds | B13
binds | B14
binds | B15
binds | B16
binds | B17
binds | B18
binds | B19
binds | B20
binds | B21
binds | B22
binds | B23
